Results from paper PMC4381061.
No constants are given. Whether binding was seen depends on the method and setting. In cells and extracts the contact can be indirect. Some entries that bind do so weakly or less than the wild type.

By UniProt entry, the sequences of proteins in these tests, tags left out.
UniProt P12004: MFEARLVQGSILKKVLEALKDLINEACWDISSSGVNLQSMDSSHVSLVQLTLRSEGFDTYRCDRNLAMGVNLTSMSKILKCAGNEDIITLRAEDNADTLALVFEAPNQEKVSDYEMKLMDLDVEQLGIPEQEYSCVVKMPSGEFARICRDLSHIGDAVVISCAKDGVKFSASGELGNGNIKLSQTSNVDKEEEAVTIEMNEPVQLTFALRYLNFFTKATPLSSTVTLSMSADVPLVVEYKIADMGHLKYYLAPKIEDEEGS
UniProt Q460N5: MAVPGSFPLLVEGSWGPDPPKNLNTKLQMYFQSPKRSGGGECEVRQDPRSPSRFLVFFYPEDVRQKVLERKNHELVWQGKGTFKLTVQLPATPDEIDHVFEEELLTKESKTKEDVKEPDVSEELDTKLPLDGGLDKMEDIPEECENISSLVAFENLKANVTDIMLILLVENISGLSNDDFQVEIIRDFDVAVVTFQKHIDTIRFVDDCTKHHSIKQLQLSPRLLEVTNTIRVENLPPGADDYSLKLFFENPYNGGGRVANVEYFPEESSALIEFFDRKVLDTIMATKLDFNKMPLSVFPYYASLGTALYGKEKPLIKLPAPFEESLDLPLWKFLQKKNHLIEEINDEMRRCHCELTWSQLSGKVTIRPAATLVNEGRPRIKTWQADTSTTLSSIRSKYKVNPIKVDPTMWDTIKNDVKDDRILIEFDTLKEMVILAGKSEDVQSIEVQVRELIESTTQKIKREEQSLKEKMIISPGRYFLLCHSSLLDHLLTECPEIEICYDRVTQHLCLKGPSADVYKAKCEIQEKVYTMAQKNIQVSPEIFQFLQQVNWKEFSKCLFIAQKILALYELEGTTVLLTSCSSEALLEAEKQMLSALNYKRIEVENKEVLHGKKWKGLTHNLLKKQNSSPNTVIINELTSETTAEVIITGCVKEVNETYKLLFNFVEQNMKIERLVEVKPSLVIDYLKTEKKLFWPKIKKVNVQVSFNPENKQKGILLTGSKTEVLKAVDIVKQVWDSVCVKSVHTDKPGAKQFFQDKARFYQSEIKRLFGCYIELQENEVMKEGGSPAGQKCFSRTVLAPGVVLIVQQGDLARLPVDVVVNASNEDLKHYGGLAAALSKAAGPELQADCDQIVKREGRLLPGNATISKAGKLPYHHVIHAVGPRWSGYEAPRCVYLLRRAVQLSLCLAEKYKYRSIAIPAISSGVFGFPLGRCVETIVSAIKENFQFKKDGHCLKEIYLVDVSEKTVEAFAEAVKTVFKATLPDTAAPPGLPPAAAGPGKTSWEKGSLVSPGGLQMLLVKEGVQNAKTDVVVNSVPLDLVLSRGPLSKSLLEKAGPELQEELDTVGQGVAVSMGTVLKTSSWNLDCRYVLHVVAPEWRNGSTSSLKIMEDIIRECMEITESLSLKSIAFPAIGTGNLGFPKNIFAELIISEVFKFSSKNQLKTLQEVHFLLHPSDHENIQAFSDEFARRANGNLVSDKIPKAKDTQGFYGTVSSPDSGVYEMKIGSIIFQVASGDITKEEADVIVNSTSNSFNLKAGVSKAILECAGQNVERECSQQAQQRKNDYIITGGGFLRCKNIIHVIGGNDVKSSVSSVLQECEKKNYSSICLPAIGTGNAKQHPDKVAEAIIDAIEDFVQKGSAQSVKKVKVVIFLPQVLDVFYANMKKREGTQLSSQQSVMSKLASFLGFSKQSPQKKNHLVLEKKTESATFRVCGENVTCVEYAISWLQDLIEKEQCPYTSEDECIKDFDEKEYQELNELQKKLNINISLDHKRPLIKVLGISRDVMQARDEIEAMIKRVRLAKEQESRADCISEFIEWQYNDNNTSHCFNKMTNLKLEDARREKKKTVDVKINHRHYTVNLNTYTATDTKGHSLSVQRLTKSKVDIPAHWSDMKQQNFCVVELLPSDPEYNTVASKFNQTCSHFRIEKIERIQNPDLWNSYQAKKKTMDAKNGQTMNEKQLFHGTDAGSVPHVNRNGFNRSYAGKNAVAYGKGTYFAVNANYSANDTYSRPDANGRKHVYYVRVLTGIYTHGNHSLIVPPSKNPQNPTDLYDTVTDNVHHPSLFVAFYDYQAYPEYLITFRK

Assays:
[1] = biological target: recombinant GST-tagged PCNA (UniProt P12004); assay: pull-down; recombinant GST-tagged PCNA with native extracts of HeLa cells (Supplementary Figure S2); only the target purified
[2] = biological target: PCNA (human (endogenous in 8988T and HeLa)) (UniProt P12004); assay: co-IP; endogenous proteins from HeLa cells (Supplementary Figure S1); addition of benzonase does not reduce the interaction (Supplementary Figure S1C)
[3] = biological target: PCNA (human (endogenous in 8988T and HeLa)) (UniProt P12004); assay: co-IP; PCNA immunoprecipitation of endogenous proteins from 8988T cells; also from cells arrested in S-phase (2.5-mM thymidine 18 h, 2 h recovery) or in G2/M (100-ng/ml nocodazole 18 h); PARP14 co-precipitated preferentially in S-phase and much less in G2/M

- binding [1]: binds
- binding [2]: binds
- binding [3]: binds
Substance: PARP14 (mono-ADP-ribosyltransferase PARP14/ARTD8) (from UniProt Q460N5 1-1801)
